According to patent US20200223885A1:
Results are given in words; binding and its absence hold for the method and conditions named. Some entries that bind do so weakly or less than the wild type. Where a sequence is shown, tags or fusion partners need not be part of it.

Molecular target: monoclonal antibody (RITUXAN, manufactured by Zenyaku Kogyo Co., Ltd.)
Experiment: affinity chromatography on the FcR9-immobilized gel column (FcR9 prepared with a cysteine tag as in Examples 3 to 5, Comparative Example 1); equilibration 20 mM acetate, 50 mM NaCl, pH 5.0; elution by pH gradient to 10 mM glycine-HCl pH 3.0; 0.6 mL/min; A280

- binding: binds
B1: Fc-binding protein FcR9 (human FcγRIIIa amino acid substitution product) (receptor)
chain: KIEEAMGMRTEDLPKAEVILEPQWNRVLEKDSVTLKCRGAYSPEDNSTQWFHNESLISSQASSYLIDAATVDDSGEYRCQTSLSTLSDPVQLEVHIGWLLLQAPRWEFKEGDPIHLRCHSWKNTALHKVTYLQNGKGRKYFHHNSDFYIPKATLKDSGSYSCRGLVGSKNVSSETVNITITQGGHHHHHH
